The list shows a part of the results.

Sequences of proteins named here, by UniProt entry; tags and fusion partners are left off. A change or cut given only in a name is not applied to a line headed by its entry.
UniProt C9J7I0: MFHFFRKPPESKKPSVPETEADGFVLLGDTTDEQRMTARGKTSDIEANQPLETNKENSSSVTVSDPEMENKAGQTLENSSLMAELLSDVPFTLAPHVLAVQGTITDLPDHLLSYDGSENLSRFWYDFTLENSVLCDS
UniProt O75317, whole entry, looked up: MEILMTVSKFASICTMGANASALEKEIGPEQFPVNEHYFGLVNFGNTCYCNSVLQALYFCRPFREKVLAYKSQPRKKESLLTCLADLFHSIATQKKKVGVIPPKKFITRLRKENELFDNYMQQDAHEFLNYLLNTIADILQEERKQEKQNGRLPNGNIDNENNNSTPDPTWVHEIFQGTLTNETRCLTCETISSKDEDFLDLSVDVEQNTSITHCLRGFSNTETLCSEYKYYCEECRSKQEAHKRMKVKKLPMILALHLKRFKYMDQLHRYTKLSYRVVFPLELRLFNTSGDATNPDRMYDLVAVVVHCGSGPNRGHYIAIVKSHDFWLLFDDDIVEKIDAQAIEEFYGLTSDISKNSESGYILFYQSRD
UniProt Q9H347: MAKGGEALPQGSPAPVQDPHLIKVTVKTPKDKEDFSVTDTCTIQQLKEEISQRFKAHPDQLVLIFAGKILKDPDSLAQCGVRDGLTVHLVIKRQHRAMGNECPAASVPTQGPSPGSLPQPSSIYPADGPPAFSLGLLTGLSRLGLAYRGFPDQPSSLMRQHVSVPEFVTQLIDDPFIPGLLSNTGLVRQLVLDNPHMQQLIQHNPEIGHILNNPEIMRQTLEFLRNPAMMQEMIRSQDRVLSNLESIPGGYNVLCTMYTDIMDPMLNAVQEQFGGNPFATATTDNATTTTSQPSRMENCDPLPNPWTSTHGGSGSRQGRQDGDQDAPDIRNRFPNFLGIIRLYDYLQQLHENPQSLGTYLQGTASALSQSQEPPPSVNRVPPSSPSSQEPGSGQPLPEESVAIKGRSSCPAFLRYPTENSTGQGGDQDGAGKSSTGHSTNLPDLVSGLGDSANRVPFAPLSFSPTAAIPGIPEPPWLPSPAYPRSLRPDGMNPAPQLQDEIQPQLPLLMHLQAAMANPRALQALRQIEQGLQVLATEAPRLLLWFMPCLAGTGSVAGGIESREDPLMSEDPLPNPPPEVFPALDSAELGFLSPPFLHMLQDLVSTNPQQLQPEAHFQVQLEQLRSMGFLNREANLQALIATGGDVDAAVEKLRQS
UniProt Q13107: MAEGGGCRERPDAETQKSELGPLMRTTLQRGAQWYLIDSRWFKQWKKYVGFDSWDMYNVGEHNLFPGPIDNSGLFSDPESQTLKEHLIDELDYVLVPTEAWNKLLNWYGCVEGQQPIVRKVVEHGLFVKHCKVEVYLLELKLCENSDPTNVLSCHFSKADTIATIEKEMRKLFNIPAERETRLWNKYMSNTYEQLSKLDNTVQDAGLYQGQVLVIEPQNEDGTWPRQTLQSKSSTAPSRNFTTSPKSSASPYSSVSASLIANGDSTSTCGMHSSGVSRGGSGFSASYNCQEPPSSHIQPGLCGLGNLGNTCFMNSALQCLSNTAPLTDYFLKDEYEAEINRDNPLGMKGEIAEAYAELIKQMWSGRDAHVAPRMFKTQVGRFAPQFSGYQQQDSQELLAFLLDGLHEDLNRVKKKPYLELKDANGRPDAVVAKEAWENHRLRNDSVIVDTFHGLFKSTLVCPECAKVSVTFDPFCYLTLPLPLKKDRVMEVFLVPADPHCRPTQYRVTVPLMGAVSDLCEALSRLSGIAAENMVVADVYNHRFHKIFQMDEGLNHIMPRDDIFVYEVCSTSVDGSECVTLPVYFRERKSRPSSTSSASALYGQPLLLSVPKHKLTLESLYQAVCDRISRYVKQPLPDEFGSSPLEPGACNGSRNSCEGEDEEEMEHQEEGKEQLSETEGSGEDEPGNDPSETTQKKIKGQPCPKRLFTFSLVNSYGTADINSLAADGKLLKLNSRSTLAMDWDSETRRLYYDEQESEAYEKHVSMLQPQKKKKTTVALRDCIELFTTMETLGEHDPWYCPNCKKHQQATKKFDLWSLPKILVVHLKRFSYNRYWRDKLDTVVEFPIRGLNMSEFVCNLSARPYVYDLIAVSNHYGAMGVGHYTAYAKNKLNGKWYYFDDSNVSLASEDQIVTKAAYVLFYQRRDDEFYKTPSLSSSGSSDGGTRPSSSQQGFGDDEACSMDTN
UniProt P51784: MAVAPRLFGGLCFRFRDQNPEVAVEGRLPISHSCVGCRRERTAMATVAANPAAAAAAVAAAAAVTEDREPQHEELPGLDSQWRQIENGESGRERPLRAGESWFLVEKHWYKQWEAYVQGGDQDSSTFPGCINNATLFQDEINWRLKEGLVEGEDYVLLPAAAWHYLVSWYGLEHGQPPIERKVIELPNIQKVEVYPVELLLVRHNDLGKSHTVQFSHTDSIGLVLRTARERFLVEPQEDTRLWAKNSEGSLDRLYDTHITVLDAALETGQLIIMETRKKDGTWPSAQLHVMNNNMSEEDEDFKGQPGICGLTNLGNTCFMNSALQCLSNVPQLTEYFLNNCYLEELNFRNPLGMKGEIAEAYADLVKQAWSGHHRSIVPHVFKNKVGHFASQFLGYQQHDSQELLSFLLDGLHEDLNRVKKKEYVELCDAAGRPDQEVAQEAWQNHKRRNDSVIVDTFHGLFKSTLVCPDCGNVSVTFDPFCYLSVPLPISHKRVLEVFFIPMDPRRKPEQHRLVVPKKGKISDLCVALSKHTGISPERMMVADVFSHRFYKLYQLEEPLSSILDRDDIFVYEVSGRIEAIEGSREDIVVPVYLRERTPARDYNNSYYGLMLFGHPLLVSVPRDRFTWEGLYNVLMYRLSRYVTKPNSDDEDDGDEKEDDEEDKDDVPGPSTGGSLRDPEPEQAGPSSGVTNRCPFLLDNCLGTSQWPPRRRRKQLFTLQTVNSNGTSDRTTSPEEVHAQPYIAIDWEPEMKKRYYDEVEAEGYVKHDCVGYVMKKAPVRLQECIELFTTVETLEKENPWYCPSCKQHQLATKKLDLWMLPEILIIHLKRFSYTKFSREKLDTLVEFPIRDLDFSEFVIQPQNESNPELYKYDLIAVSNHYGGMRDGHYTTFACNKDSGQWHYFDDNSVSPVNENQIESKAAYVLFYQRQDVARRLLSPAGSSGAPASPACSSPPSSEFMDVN
UniProt Q9Y5T5, whole entry, looked up: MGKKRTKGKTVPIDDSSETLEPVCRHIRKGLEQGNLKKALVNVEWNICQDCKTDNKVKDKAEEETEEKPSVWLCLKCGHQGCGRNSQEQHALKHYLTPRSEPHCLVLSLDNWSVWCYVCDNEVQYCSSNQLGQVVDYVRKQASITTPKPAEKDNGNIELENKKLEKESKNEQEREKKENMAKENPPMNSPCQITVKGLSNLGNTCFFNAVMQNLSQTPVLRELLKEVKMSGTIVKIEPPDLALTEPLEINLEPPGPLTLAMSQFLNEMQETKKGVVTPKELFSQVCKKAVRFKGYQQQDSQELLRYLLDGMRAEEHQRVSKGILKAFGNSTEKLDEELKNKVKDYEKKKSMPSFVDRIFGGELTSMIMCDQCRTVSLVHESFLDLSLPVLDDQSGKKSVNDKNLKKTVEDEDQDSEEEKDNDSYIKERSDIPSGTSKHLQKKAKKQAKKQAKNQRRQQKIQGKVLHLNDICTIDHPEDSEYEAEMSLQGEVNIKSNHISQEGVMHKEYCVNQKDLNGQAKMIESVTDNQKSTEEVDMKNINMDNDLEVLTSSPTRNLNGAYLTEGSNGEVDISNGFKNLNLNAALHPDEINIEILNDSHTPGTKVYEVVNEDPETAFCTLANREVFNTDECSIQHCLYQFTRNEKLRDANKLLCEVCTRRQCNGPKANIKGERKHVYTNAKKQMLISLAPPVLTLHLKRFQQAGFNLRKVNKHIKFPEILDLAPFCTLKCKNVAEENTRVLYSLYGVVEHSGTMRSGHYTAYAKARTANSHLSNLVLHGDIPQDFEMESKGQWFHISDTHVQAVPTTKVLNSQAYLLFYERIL
UniProt Q9BRU9: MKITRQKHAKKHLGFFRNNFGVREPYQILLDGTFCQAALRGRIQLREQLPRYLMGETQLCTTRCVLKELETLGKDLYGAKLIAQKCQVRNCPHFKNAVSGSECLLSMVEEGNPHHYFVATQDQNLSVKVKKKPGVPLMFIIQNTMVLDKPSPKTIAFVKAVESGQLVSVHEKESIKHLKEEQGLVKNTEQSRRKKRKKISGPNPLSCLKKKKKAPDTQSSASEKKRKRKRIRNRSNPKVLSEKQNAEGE
UniProt A6NNY8: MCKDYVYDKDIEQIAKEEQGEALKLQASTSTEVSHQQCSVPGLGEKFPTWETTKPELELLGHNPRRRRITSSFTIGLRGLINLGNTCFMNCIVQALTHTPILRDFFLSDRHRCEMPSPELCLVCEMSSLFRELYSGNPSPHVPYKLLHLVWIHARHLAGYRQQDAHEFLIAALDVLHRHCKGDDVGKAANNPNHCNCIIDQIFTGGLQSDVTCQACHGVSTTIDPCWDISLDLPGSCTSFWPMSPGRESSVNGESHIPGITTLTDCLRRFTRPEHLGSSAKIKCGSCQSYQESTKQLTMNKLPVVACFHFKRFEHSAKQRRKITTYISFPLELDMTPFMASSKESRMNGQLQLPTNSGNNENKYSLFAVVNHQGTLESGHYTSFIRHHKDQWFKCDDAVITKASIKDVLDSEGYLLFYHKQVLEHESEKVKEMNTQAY
UniProt Q8IWV7: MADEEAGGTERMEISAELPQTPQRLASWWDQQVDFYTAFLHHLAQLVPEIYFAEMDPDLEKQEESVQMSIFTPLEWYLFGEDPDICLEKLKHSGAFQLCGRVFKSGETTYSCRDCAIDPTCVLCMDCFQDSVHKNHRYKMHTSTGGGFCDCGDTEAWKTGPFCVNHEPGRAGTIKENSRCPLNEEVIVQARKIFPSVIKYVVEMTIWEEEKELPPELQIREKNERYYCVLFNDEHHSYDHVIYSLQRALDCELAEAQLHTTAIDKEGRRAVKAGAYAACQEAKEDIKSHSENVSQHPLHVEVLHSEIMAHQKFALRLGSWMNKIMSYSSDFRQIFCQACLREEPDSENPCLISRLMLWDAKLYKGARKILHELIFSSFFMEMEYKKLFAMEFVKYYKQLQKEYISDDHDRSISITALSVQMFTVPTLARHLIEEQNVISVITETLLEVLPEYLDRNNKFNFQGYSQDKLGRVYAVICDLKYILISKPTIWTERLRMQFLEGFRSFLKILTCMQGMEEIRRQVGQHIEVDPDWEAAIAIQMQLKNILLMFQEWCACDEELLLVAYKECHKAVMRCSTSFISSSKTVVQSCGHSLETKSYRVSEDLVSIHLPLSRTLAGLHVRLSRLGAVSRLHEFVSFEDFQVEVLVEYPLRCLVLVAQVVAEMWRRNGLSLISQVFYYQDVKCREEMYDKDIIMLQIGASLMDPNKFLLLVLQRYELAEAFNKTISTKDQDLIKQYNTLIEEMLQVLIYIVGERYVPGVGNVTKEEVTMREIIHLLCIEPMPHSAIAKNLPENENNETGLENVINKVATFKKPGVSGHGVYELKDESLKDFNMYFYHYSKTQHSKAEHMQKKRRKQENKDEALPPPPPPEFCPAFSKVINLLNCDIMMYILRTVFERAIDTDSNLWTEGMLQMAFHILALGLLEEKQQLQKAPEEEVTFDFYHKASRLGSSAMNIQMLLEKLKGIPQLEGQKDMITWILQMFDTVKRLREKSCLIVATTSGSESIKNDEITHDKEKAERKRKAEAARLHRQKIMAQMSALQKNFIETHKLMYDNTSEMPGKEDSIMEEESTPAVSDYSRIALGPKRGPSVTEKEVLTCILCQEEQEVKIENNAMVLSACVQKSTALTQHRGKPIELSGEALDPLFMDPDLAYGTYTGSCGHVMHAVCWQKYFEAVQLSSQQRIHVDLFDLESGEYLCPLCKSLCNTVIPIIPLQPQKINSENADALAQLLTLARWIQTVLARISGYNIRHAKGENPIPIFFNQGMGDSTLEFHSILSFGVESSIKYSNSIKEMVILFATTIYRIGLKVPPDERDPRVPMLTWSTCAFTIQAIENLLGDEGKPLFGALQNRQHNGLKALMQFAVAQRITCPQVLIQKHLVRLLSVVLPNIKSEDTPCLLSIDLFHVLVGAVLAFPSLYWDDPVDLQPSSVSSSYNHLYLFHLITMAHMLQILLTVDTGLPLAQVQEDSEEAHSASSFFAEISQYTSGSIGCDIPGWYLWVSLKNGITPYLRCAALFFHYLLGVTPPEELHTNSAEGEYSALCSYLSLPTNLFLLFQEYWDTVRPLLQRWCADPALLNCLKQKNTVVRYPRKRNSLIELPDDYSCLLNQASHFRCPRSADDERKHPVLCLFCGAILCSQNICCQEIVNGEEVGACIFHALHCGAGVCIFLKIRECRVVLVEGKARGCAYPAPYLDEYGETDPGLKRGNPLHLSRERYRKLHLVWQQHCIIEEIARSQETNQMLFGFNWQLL

Compound in this experiment: C[C@H](Nc1ncnc2nc[nH]c12)c1cc2cccc(Cl)c2c(=O)n1-c1ccccc1 [duvelisib]
Description: log2 fold change, soluble protein after heating vs DMSO (PISA); higher = thermal stabilisation; K562 cells, 10 uM, 30 min; active = over 0.2 and 3.5 SD of the protein, either way, in both replicates (recomputed). In a few lines:
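For each measurement, 10 μM compound was applied for 30 min to K562 cells at 2×10^6 cells/mL. Aliquots were heated for 3 min across 48°C-58°C, pooled, and extracted in PBS with 0.5% NP-40 at 4°C; the supernatant after 21,000xg for 90 min was soluble protein. This was quantified by TMTpro 16plex LC-MS/MS with channel sums equalised, and thermal stability was reported relative to control samples from duplicates, on a log2 fold-change scale.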
As to UNC5B (UniProt Q8IZJ1), the log2 fold change is inactive: 0.19. As for UNG (UniProt P13051), the figure is inactive: 0.045; as for USP54 (UniProt Q70EL1), inactive: -0.044; as for UMAD1 (UniProt C9J7I0), inactive: 0.24. For the target USP12 (UniProt O75317), the log2 fold change was inactive: 0.045.

Take UBQLN3 (UniProt Q9H347): the log2 fold change is inactive: 0.018. As for USP4 (UniProt Q13107), the figure is inactive: -0.058; as for UBQLN1 isoform 2 (UniProt Q9UMX0), inactive: 0.154; as for USP11 (UniProt P51784), inactive: -0.015. On to USP16 (UniProt Q9Y5T5), for which the log2 fold change was inactive: -0.159. As to UTP23 (UniProt Q9BRU9), the log2 fold change was inactive: -0.04. Take USP27X (UniProt A6NNY8): the log2 fold change is inactive: -0.023. As for USP33 (UniProt Q8TEY7), the figure is inactive: 0.027; as for UBR1 (UniProt Q8IWV7), inactive: 0.213.

These data come from the supplement of paper PMC10849652.
